Experimental data: paper PMC4912122
Results are given in words; binding and its absence hold for the method and conditions named. In cells and extracts the contact can be indirect. Binding calls can cover weak binding; strength is not graded here. Tags and fused reporters may be left off the sequences shown.

Target: GFP-tagged NbCUL1 (N. benthamiana)
Assay: co-IP; proteins co-expressed in N. benthamiana leaves by agroinfiltration, 50 μM MG132 12 h before harvest; GFP-tagged bait or GFP precipitated with GFP-Trap beads, 2 hours at 4°C, buffer NB1; blots with anti-HA, anti-GFP, anti-Myc

binding: binds
B1: Myc-COI1 (protein, UniProt O04197 1-592)
chain: MEDPDIKRCKLSCVATVDDVIEQVMTYITDPKDRDSASLVCRRWFKIDSETREHVTMALCYTATPDRLSRRFPNLRSLKLKGKPRAAMFNLIPENWGGYVTPWVTEISNNLRQLKSVHFRRMIVSDLDLDRLAKARADDLETLKLDKCSGFTTDGLLSIVTHCRKIKTLLMEESSFSEKDGKWLHELAQHNTSLEVLNFYMTEFAKISPKDLETIARNCRSLVSVKVGDFEILELVGFFKAAANLEEFCGGSLNEDIGMPEKYMNLVFPRKLCRLGLSYMGPNEMPILFPFAAQIRKLDLLYALLETEDHCTLIQKCPNLEVLETRNVIGDRGLEVLAQYCKQLKRLRIERGADEQGMEDEEGLVSQRGLIALAQGCQELEYMAVYVSDITNESLESIGTYLKNLCDFRLVLLDREERITDLPLDNGVRSLLIGCKKLRRFAFYLRQGGLTDLGLSYIGQYSPNVRWMLLGYVGESDEGLMEFSRGCPNLQKLEMRGCCFSERAIAAAVTKLPSLRYLWVQGYRASMTGQDLMQMARPYWNIELIPSRRVPEVNQQGEIREMEHPAHILAYYSLAGQRTDCPTTVRVLKEPI
